# Library screening results

By UniProt entry, the sequences of proteins in these tests, tags left out.
UniProt E9BF75, entry or part of it: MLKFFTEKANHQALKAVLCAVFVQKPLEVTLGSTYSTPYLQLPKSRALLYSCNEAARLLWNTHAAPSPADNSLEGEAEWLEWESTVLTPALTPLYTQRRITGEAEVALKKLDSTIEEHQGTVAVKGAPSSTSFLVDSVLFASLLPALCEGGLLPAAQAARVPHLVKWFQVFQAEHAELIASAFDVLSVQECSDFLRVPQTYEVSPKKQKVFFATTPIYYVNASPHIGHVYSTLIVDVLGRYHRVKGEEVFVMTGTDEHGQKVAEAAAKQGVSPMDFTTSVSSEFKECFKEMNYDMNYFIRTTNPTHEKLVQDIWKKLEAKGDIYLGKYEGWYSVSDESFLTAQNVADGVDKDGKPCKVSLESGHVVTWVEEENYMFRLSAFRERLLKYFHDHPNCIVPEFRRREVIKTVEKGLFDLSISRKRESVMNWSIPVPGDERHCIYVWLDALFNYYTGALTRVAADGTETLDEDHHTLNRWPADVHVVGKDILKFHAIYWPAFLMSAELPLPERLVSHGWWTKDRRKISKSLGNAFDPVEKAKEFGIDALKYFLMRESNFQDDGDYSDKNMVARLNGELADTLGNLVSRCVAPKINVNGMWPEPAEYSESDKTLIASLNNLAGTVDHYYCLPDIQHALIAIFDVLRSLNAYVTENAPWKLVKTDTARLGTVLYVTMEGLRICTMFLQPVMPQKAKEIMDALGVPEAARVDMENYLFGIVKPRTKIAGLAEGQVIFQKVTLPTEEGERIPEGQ

Source: ChEMBL document CHEMBL3988442, “University of Dundee, Small-Polar-MMV Screening Library” (2021).

All values are in %.
How 0% and 100% were set is not recorded. Most values in the screen are low, and negative values occur.
Compounds were drawn at random from those tested, without regard to their results.
A dash means the value is not listed here; it may have been measured.

LdMetRS: 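Primary screen of methionyl-tRNA synthetase; the read-out is not stated. Target: Methionyl-tRNA synthetase (putative), Leishmania donovani (UniProt E9BF75). The test concentration is not given. The values are filed as inhibition. About 68,000 compounds were tested under these conditions; 0.035% (about 24) showed 50% or more at least once.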
Mtb heat-shock: 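Assay on Mycobacterium tuberculosis, filed only as a heat shock assay from Cornell; the read-out is not stated. The concentration is filed as 10 mM, unlikely as a test dose, so the dose is not known. Higher reads as stronger inhibition (inferred: compounds with an IC50 in retests scored well above the rest). About 69,000 compounds were tested under these conditions; 1.4% (about 930) showed 50% or more at least once.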

| SMILES | LdMetRS | Mtb heat-shock |
|---|---|---|
| `COc1ccc2c(c1)NC(=O)C2OC(=O)Cc1ccccc1C` (centres undefined) | 9.409% | -30.68% |
| `COc1c(CNCCC(=O)NC2CCCCC2)c(C(C)C)nn1C` | 18.72% | -20.11% |
| `Clc1ccc(-n2cnnc2CCCN2CCOCC2)cc1` | 8.75% | -22.25% |
| `CCc1cnc(N)nc1NCCCn1cc(Cl)cn1` | 3.377% | 4.214% |
| `CN(C)C(=O)CN1CCCc2c(F)cc(Br)cc21` | 15.12% | -5.775% |
| `Cn1ccc(C(=O)N2CCN(CCc3ccccc3)CC2)cc1=O` | 14.58% | -13.21% |
| `CCCc1cc(C(=O)N2C[C@@H](C)[C@](O)(C3CCC3)C2)[nH]n1` | 0.7792% | -10.46% |
| `Cc1cc(C(=O)N2CCCC3(COCCN(c4ncccn4)C3)C2)[nH]n1.O=C(O)C(F)(F)F.O=C(O)C(F)(F)F` (centres undefined) | - | 1.965% |
| `CC(=O)N1C[C@H](NS(=O)(=O)c2cccc(Cl)c2)[C@@H](C(C)C)C1` | 8.421% | 13.6% |
| `Cc1n[nH]c2c1C(c1cccnc1)SCC(=O)N2` (centres undefined) | 6.977% | 5.055% |
| `CCOCc1ccccc1NC(=O)NC1CCN(CC(F)(F)F)C1` (centres undefined) | 7.436% | -20.44% |
| `O=C(CN1CCCNC1=O)Nc1ccccc1SC(F)(F)F` | 5.292% | -19.74% |
| `CNC(=O)C1CC2(CCN(C(=O)c3csnn3)CC2)c2ccccc21` (centres undefined) | 3.425% | 10.35% |
| `CCN1CCc2onc(CNc3ncccn3)c2C1` | -2.151% | -1.185% |
| `O=C(O)C(F)(F)F.O=S(=O)(NC1CCC12CCN(CC1CCOCC1)CC2)c1ccccc1` (centres undefined) | - | -49.82% |
| `Cc1noc([C@@]23CCO[C@@H]2CCN(Cc2scnc2C)C3)n1` | 12.9% | - |
| `Cl.[H][C@@]12CNC[C@]1([H])CN(C(=O)C1CCCCC1)C2` | - | -3.289% |
| `Cn1cc(NC(=O)NC2CCCN(c3ccccc3Cl)C2=O)cn1` (centres undefined) | 2.997% | 5.642% |
| `CC(C)c1nc(S(=O)(=O)Nc2ccnn2C2CCCC2)c[nH]1` | 3.351% | -5.118% |
| `Cc1cccc(-c2ccc(C(=O)NCC3CCCOC3)c(=O)[nH]2)c1` (centres undefined) | 23.89% | -10.11% |
| `CN(C)CCNC(=O)c1nc2c(s1)CCCN2C(=O)C1CC1.O=C(O)C(F)(F)F` | - | 24.43% |
| `O=C(O)C(F)(F)F.O=C(O)C(F)(F)F.O=C(O)C(F)(F)F.[H][C@@]12COC[C@]1([H])[C@H](OCc1ccccn1)CN2Cc1cccnc1` | - | -0.5085% |
| `Cc1ncccc1Oc1nccnc1C1CCN(S(C)(=O)=O)CC1` | 9.647% | -25.51% |
| `Cc1cc(C)n(-c2cncc(NCCNC(=O)C(C)(C)C)n2)n1` | 16.95% | 16.02% |
| `CS(=O)(=O)c1cn[nH]c1C1CCCCN1C(=O)c1cnccn1` (centres undefined) | 17.36% | -10.72% |
| `CCOCc1nc(-c2cccc(OC)c2OC)n(C2CCN(C)CC2)n1` | 1.828% | 6.14% |
| `COc1ccccc1CC(=O)N1CC[C@H](O)[C@]2(CCCO2)C1` | 11.06% | -8.339% |
| `c1ccc(N2CCC(NCc3cccc4cn[nH]c34)C2)cc1` (centres undefined) | 13.09% | 27.38% |
| `CC1(C)CN(C(=O)c2cc(F)cc3[nH]cnc23)CCS1` | 19.11% | 0.2265% |
| `Cc1cccc(CN2CCCC(c3nccs3)C2)n1` (centres undefined) | 23.05% | 35.94% |
| `Cc1ccccc1CS(=O)(=O)NCCCN1CCCC1` | - | 11.97% |
| `[H][C@@]12CN(c3nc(C)cc(C)n3)C[C@]1([H])N(Cc1ccccc1OC)C(=O)O2` | - | -3.548% |
| `Cc1cnc(CN(C)C2CCN(Cc3cnc(C)s3)C2)o1` (centres undefined) | 10.63% | -46.96% |
| `CN(C)c1ccc(CN(CCCn2ccnc2)Cc2c[nH]cn2)cc1` | 17.47% | - |
| `O=C(O)C(F)(F)F.O=C(O)C(F)(F)F.[H][C@@]12CN(CC3CCOC3)C[C@]1([H])CN(c1ncccn1)C2` (some centres undefined) | - | -39.47% |
| `CCN(C)CC(=O)N1CCN(Cc2ccccc2)[C@@H]2CS(=O)(=O)C[C@@H]21` | 8.791% | - |
| `Cc1ccc(C(=O)NCCCN(C)S(C)(=O)=O)c(=O)[nH]1` | - | -14.79% |
| `O=C(c1cnccn1)N1CCC(Oc2ncccc2Cl)CC1` | 4.317% | -1.174% |
| `O=S(=O)(c1c(F)cccc1F)N1CCC(Cn2cccn2)CC1` | 4.348% | 13.07% |
| `Cn1cc(CN2CC[C@H](O)[C@@H]2Cc2ccncc2)cn1` | 5.051% | -20.54% |
| `Cc1cc(CN2C[C@@H](C)[C@@]3(CCN(CC(=O)N(C)C)C3=O)C2)oc1C` | 11.23% | - |
| `COCCN1CCCC2(CCC(=O)N2Cc2cccnc2)C1.O=C(O)C(F)(F)F` (centres undefined) | - | -18.4% |
| `N[C@H]1CC[C@@H](NC(=O)c2ccc3nc(-c4ccc(F)cc4)cn3c2)CC1` | 11.18% | -7.109% |
| `Cc1ccc(C(=O)N2CCOCC2)cc1NCc1ccsc1` | 12.03% | -9.542% |
| `CC(C)Oc1cccc(CNC(Cc2ccsc2)c2nccs2)c1` (centres undefined) | 17.72% | - |
| `COc1ccc(C2(NCc3noc(C4CC4)n3)CCOCC2)cc1` | 3.621% | 11.21% |
| `O=C1Nc2ccccc2CNC12CCN(CC1CCNC1)CC2` (centres undefined) | 14.86% | -18.28% |
| `COCCNC(=O)C[C@@H]1COC[C@H]2CN(C(=O)c3cnccn3)C[C@@H]12` | 17.5% | - |
| `CS(=O)(=O)N1CCCC1Cn1cccn1` (centres undefined) | 1.29% | -26.25% |
| `CCN(C)C[C@H]1CC[C@@H](Cc2ccc3c(cnn3C)c2)O1` | 8.635% | -4.508% |
| `CCNC(=O)N(C)Cc1ccc(SC)c(OC)c1` | 14.29% | 10.46% |
| `CCc1noc(CNCC2CCCN2c2cccnn2)n1` (centres undefined) | 17.13% | 11.99% |
| `Cn1ccnc1CCNS(=O)(=O)Cc1cccc(C#N)c1` | 18.79% | 17.84% |
| `CCc1nc(C2CCCN2CCCSC)no1` (centres undefined) | 13.11% | -26.53% |
| `Cc1nc(C2CCCN(C(=O)c3cccc(S(C)(=O)=O)c3)C2)no1` (centres undefined) | 11.81% | -13.38% |
| `CCc1ccc(-c2nn3c(nc2=O)-c2ccccc2NC3C(=O)O)cc1` (centres undefined) | 6.72% | 6.646% |
| `CCCc1noc(CCC(=O)N2CCCC(n3ccnc3C)C2)n1` (centres undefined) | 6.044% | 16.65% |
| `FC(F)(F)c1ccnc(N2CCC(c3nccn3CC3CC3)CC2)n1` | 12.47% | 38.53% |
| `Nc1nc2c(c(NCC(c3cccnc3)N3CCOCC3)n1)CCCC2` (centres undefined) | 13.15% | -13.39% |
| `CC(Oc1ccccc1C(F)(F)F)C(=O)NCC(=O)N1CCCC1` (centres undefined) | 17.06% | -14.09% |
| `CS(=O)(=O)N1CCCC12CCN(Cc1nccs1)CC2.O=C(O)C(F)(F)F` | - | -9.27% |
| `CCCn1c(C)c(CC(=O)NCCOC)c2c1CC(C)(C)CC2=O` | 21.53% | 2.91% |
| `Cc1cccc(CN2CCCn3c(nnc3Cn3cccn3)C2)n1.O=C(O)C(F)(F)F` | - | -30.89% |
| `CC(=O)N1CCCCCC1C1CCN(Cc2nnc(C(C)(C)C)o2)CC1` (centres undefined) | 8.992% | - |
| `CC(=O)c1c(N(C)C)ccnc1C(F)(F)F` | 18.05% | -4.782% |
| `COCCCNC(=O)CN(C)C(=O)c1cc(Cl)ccc1O` | 17.46% | 100.8% |
| `Oc1ncccc1-c1nc(-c2cccc(CN3CCOCC3)c2)no1` | 12.1% | -4.45% |
| `CC(C)Oc1ccc(C(=O)N2CCC(Nc3cccnn3)CC2)cn1` | 26.52% | -15.46% |
| `Cc1ccc(C(=O)N2C[C@H](OCc3cccnc3)[C@H]3COC[C@H]32)cn1` | 15.74% | - |
| `CN(C)Cc1cnc(C2CCN(C(=O)c3cc(F)cc(F)c3)C2)[nH]1` (centres undefined) | 15.94% | 7.695% |
| `c1ccc(C2CCN(c3cncc(-n4cccn4)n3)CC2)cc1` | 16.19% | -1.073% |
| `O=C(Cc1ccccn1)N1C[C@H](OCc2cccnc2)[C@H]2COC[C@H]21` | 1.523% | - |
| `COc1cccc(CCC2CCCN(C(=O)c3ccccn3)C2)c1` (centres undefined) | 6.052% | -21.53% |
| `Cc1cc(C2CCC2)nc(N2CCC3(CCCN(C)C3=O)C2)n1` (centres undefined) | 16.06% | 6.561% |
| `COCCNC(=O)Cn1c(C)cc2nc(SC)n(CC(C)C)c(=O)c21` | 11.18% | -7.488% |
| `O=C(C1CCOC1)N1CCC(OCc2ccccc2)CC1` (centres undefined) | 12.27% | 10.14% |
| `Cc1ccc(CN2CCC3(CCCN3C(=O)C(C)C)CC2)o1` | 6.723% | -19.98% |
| `Cn1ccnc1CN1CCc2ncnc(N3CCCC(C#N)C3)c2CC1` (centres undefined) | 10.28% | -11% |
| `O=C(C1CCC1)N1CCn2c(COc3ncccn3)nnc2C1` | 9.871% | -5.855% |
| `CN(Cc1csc(-c2cccs2)n1)C(=O)CCn1ccc(=O)[nH]c1=O` | 2.933% | -41.81% |

The last 6 entries again:

| SMILES | LdMetRS | Mtb heat-shock |
|---|---|---|
| `COCCNC(=O)Cn1c(C)cc2nc(SC)n(CC(C)C)c(=O)c21` | 11.18% | -7.488% |
| `O=C(C1CCOC1)N1CCC(OCc2ccccc2)CC1` (centres undefined) | 12.27% | 10.14% |
| `Cc1ccc(CN2CCC3(CCCN3C(=O)C(C)C)CC2)o1` | 6.723% | -19.98% |
| `Cn1ccnc1CN1CCc2ncnc(N3CCCC(C#N)C3)c2CC1` (centres undefined) | 10.28% | -11% |
| `O=C(C1CCC1)N1CCn2c(COc3ncccn3)nnc2C1` | 9.871% | -5.855% |
| `CN(Cc1csc(-c2cccs2)n1)C(=O)CCn1ccc(=O)[nH]c1=O` | 2.933% | -41.81% |